Experimental data taken from publication PMC8954747 (Viruses, 2022).
These are yes or no findings as the source states them, for the method shown.

The chains behind the UniProt entries cited, without tags or fusion partners. Residues count along the entry.
UniProt Q14160, residues 1099-1203: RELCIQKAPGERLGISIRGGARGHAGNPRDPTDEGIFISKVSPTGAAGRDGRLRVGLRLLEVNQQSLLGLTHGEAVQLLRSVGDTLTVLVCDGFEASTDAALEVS

Molecular target: human Scribble (SCRIB) PDZ4 domain (residues 1099-1203) (human) (UniProt Q14160)
Assay: ITC; both purified

Binder: KMARTIESKV [NS1 ESKV PBM peptide KMARTIESKV (H5N1 A/chicken/Hubei/327/2004), 10-mer]
- binding: no binding (tested: peptide 900 µM, PDZ domain ~75 µM)
